Measurements taken from PMC9485119.
Results are given in words; binding and its absence hold for the method and conditions named. Binding seen in cells or lysates may run through a third protein. Some binding calls cover weakened binding; strength is not graded here.

What was measured:
[1] = target: T1, MOB kinase activator 1A (MOB1A) (human (endogenous in HCT 116 and HT-29)) (UniProt Q9H8S9); experiment: co-IP; endogenous proteins in HCT 116 and HT-29 cells; immunoprecipitation with anti-MOB1A or anti-praja2 antibody, western blot; also in cells with WEE2-AS1 knockdown or overexpression
T1 sequence: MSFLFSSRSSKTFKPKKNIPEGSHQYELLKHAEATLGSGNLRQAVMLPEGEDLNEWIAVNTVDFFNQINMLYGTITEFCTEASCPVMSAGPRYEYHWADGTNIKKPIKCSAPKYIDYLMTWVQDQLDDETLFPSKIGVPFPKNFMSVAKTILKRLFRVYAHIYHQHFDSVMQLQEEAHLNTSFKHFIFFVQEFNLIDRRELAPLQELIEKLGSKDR

[2] = target: T2, E3 ubiquitin-protein ligase praja2 (human (endogenous in HCT 116 and HT-29)) (UniProt O43164); experiment: as above
T2 sequence: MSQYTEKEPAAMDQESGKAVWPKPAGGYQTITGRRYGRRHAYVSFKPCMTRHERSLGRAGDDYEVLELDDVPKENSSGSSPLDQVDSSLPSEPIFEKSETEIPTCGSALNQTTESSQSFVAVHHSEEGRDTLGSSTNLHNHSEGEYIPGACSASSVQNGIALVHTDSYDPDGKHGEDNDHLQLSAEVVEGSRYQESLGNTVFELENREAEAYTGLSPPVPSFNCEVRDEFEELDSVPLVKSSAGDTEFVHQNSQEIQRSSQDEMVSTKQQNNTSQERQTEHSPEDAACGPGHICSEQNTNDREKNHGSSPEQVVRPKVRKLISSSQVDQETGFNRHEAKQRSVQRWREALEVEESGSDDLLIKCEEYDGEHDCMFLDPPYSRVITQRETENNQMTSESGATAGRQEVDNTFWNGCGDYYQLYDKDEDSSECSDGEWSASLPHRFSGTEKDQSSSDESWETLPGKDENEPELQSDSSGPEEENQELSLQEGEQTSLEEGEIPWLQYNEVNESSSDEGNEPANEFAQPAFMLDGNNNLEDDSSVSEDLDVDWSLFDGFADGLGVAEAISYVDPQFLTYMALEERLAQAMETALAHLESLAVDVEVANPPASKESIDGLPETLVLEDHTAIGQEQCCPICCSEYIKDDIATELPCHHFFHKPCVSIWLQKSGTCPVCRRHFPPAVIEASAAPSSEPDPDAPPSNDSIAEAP

Row | Binder | binding [1] | binding [2]
1 | E3 ubiquitin-protein ligase praja2 (enzyme, UniProt O43164 1-708) MSQYTEKEPAAMDQESGKAVWPKPAGGYQTITGRRYGRRHAYVSFKPCMTRHERSLGRAGDDYEVLELDDVPKENSSGSSPLDQVDSSLPSEPIFEKSETEIPTCGSALNQTTESSQSFVAVHHSEEGRDTLGSSTNLHNHSEGEYIPGACSASSVQNGIALVHTDSYDPDGKHGEDNDHLQLSAEVVEGSRYQESLGNTVFELENREAEAYTGLSPPVPSFNCEVRDEFEELDSVPLVKSSAGDTEFVHQNSQEIQRSSQDEMVSTKQQNNTSQERQTEHSPEDAACGPGHICSEQNTNDREKNHGSSPEQVVRPKVRKLISSSQVDQETGFNRHEAKQRSVQRWREALEVEESGSDDLLIKCEEYDGEHDCMFLDPPYSRVITQRETENNQMTSESGATAGRQEVDNTFWNGCGDYYQLYDKDEDSSECSDGEWSASLPHRFSGTEKDQSSSDESWETLPGKDENEPELQSDSSGPEEENQELSLQEGEQTSLEEGEIPWLQYNEVNESSSDEGNEPANEFAQPAFMLDGNNNLEDDSSVSEDLDVDWSLFDGFADGLGVAEAISYVDPQFLTYMALEERLAQAMETALAHLESLAVDVEVANPPASKESIDGLPETLVLEDHTAIGQEQCCPICCSEYIKDDIATELPCHHFFHKPCVSIWLQKSGTCPVCRRHFPPAVIEASAAPSSEPDPDAPPSNDSIAEAP | binds | 
2 | MOB kinase activator 1A (MOB1A) (protein, UniProt Q9H8S9 1-216) MSFLFSSRSSKTFKPKKNIPEGSHQYELLKHAEATLGSGNLRQAVMLPEGEDLNEWIAVNTVDFFNQINMLYGTITEFCTEASCPVMSAGPRYEYHWADGTNIKKPIKCSAPKYIDYLMTWVQDQLDDETLFPSKIGVPFPKNFMSVAKTILKRLFRVYAHIYHQHFDSVMQLQEEAHLNTSFKHFIFFVQEFNLIDRRELAPLQELIEKLGSKDR |  | binds
